Test results reported in patent US10299502B2, “Method for producing an extract of a matrix of vegetable origin with a non-ionic amphiphilic compound as extraction adjuvant in an aqueous medium” (PIERRE FABRE DERMO-COSMETIQUE, priority 2015, dated 2019).

Assay: Extraction of α-mangostin from mangosteen pericarps with aqueous solutions of amphiphilic compound
Set-up: species or system Garcinia mangostana
Description: These values are necessary to implement the extraction method, such as for example the extraction of α-mangostin from mangosteen pericarps:
At 25% APXC4, the active substance content extracted from mangosteen pericarps is equivalent to that obtained by ethyl acetate reflux extraction, which is not the case at 5% (concentration below the MHC).

CCOC(C)=O [AcOEt, ethyl acetate, reference compound]
g of α-mangostin extracted % g of plant (concentration 100%, ethyl acetate reflux extraction): 7.49 g % g of plant

CC(C)(O)CCO [Isopentyldiol, 3-methyl-1,3-butanediol]
g of α-mangostin extracted % g of plant (compound concentration 59%): 6.59 g % g of plant

amyl xyloside
g of α-mangostin extracted % g of plant (compound concentration 40%): 7.30 g % g of plant
